Measured values reported in PMC12431657, “Discovery and mechanistic insights of dibenzoylmethane as a broad spectrum inhibitor of coronavirus” (PLOS Pathogens, 2025).
Like-named read-outs stand apart in the source and are kept apart here. Among all 3,300 compounds or so, about 95 (3%) showed an effect of 50% or more. Some of the results follow. Peptide text beside a SMILES is read from it.

Test system: HCoV-229E
Set-up: species or system Huh-7; HTS, protection from HCoV-229E induced cell death, luminescent cell viability (CellCounting-Lite 2.0), inhibition rate
Conditions: 24 h post infection, 1 h compound pre-incubation, 10 µM, inhibitor

In the case of `C[C@H](CCC(=O)O)[C@H]1CC[C@H]2[C@@H]3CC[C@@H]4C[C@H](O)CC[C@]4(C)[C@H]3CC[C@]12C` [Lithocholic acid], the “229E Inhibition rate” value is reported as 28.4%.
With `Cc1nc2ccccc2o1` [2-Methylbenzoxazole] the “229E Inhibition rate” value was 0%.
In the case of `CC(C)=CCc1cc2c(cc1O)oc(=O)c1c3ccc(O)cc3oc21` [Psoralidin], the “229E Inhibition rate” value is reported as 43.7%.
With `CCCCCCCCCCCCCCCCCCCCC` [Heneicosane] the “229E Inhibition rate” value was 4.6%.
For `COc1cc2c(cc1OC)-c1c(C)c3ccc(OC)c(OC)c3c[n+]1CC2` [Dehydrocorydaline (chloride)], the “229E Inhibition rate” value (229E Inhibition rate, 24 h) was 41.1%.
In the case of `C=CCc1cc(OC)c(O[C@@H](C)[C@H](O)c2ccc(O)c(OC)c2)c(OC)c1` [Myrislignan], the “229E Inhibition rate” value is reported as 0%.
`O=C(O)CCc1ccc(O)c(O)c1` [Dihydrocaffeic acid] was tested, and the “229E Inhibition rate” value was 0%.
For `C/C=C1\[C@H]2C=C(C)C[C@]1(N)c1ccc(=O)[nH]c1C2` [(-)-Huperzine A], the “229E Inhibition rate” value was 16.2%.
In the case of `CC(C)=CCOc1c2ccoc2cc2oc(=O)ccc12` [Isoimperatorin], the “229E Inhibition rate” value is reported as 19.3%.
For `COc1ccc(/C=C/C(=O)O)cc1O` [Isoferulic acid], the “229E Inhibition rate” value was 11.2%.
With `CC(C)C1=C[C@H]2[C@@H](CC[C@]2(C)O)[C@](C)(O)CC1` [Alismoxide] the “229E Inhibition rate” value was 10.6%.
For `CC1(C)CC[C@]23CO[C@@]4(C=C[C@@H]5[C@@]6(C)CC[C@H](O)[C@@](C)(CO)[C@@H]6CC[C@@]5(C)[C@]4(C)C[C@@H]2O)[C@@H]3C1` [Saikogenin F], the “229E Inhibition rate” value was 9.2%.
For `Cc1c(O)c(C)c2occ(Cc3ccc4c(c3)OCO4)c(=O)c2c1O` [Methylophiopogonone A], the “229E Inhibition rate” value was 16.3%.
`C=C1C[C@@]23CC[C@H]4[C@@](C)(CCC[C@@]4(C)C(=O)O)[C@@H]2CC[C@@H]1C3` [Kaurenoic acid] was tested, and the “229E Inhibition rate” value was 8.8%.
With `Cc1cc(O)c2c(c1)C(=O)c1cc(O)cc(O)c1C2=O` [Emodin] the “229E Inhibition rate” value was 26.5%.
For `CC(C)(O)[C@@H]1CC[C@](C)([C@H]2[C@@H](O)C[C@@]3(C)[C@@H]4C[C@H](O)[C@H]5C(C)(C)[C@@H](O)CC[C@]5(C)C4=CC[C@]23C)O1` [Astragenol], the “229E Inhibition rate” value was 18.5%.
With `O=C(O)CC(=O)OC[C@H]1O[C@@H](Oc2c(-c3ccc(O)c(O)c3)oc3cc(O)cc(O)c3c2=O)[C@H](O)[C@@H](O)[C@@H]1O` [Quercetin 3-O-(6''-O-malonyl)-β-D-glucoside] the “229E Inhibition rate” value was 8%.
In the case of `CC(C)=CCC[C@](C)(O[C@@H]1O[C@H](CO[C@@H]2O[C@H](CO)[C@@H](O)[C@H](O)[C@H]2O)[C@@H](O)[C@H](O)[C@H]1O)[C@H]1CC[C@]2(C)[C@@H]1[C@H](O)C[C@@H]1[C@@]3(C)CC[C@H](O[C@@H]4O[C@H](CO)[C@@H](O)[C@H](O)[C@H]4O[C@@H]4O[C@H](CO)[C@@H](O)[C@H](O)[C@H]4O)C(C)(C)[C@@H]3CC[C@]12C` [Ginsenoside Rb1], the “229E Inhibition rate” value is reported as 12.4%.
For `O=C(O)CC1CCCCC1` [Cyclohexaneacetic acid], the “229E Inhibition rate” value was 8.6%.
`C/C=C(\C)C(=O)O[C@H]1[C@H](OC(C)=O)[C@]2(CO)[C@H](O)C[C@]3(C)C(=CC[C@@H]4[C@@]5(C)CC[C@H](O[C@@H]6O[C@H](C(=O)O)[C@@H](O[C@@H]7O[C@H](CO)[C@@H](O)[C@H](O)[C@H]7O)[C@H](O)[C@H]6O[C@@H]6O[C@H](CO)[C@@H](O)[C@H](O)[C@H]6O)[C@](C)(CO)[C@@H]5CC[C@]43C)[C@@H]2CC1(C)C` [Escin IA] was tested, and the “229E Inhibition rate” value was 8.8%.
With `O=C(O)CCCC(=O)C(=O)O` [Oxoadipic acid] the “229E Inhibition rate” value was 7%.
With `O=C(O)c1ccc(CO)o1` [5-Hydroxymethyl-2-furancarboxylic acid] the “229E Inhibition rate” value was 0%.
`O=C(O)C1CCCCN1O` (stereo not drawn) [N-Hydroxypipecolic acid] was tested, and the “229E Inhibition rate” value was 19%.
With `C[C@H](CC[C@@H](O[C@@H]1O[C@H](CO)[C@@H](O)[C@H](O)[C@H]1O)C(C)(C)O)[C@H]1CC[C@@]2(C)[C@@H]3CC=C4[C@@H](CC[C@H](O[C@@H]5O[C@H](CO)[C@@H](O)[C@H](O)[C@H]5O)C4(C)C)[C@]3(C)[C@H](O)C[C@]12C` [Mogroside IIe] the “229E Inhibition rate” value was 17.6%.
In the case of `O=C1CCCCO1` [Tetrahydro-2H-pyran-2-one], the “229E Inhibition rate” value is reported as 36.9%.
With `COc1cc(/C=C/C(=O)CC(=O)/C=C/c2ccc(O)c(OC)c2)ccc1O` [Curcumin] the “229E Inhibition rate” value was 26.3%.
In the case of `C[C@@H]1O[C@@H](O[C@H]2[C@H](Oc3c(-c4ccc(O)cc4)oc4cc(O)cc(O)c4c3=O)O[C@H](CO)[C@@H](O)[C@@H]2O)[C@H](O)[C@H](O)[C@H]1O` [Kaempferol 3-neohesperidoside], the “229E Inhibition rate” value is reported as 17.2%.
With `CC1(C)CC[C@]2(C(=O)O)CC[C@]3(C)C(=CC[C@@H]4[C@@]5(C)C[C@H](O)[C@H](O)[C@@](C)(C(=O)O)[C@@H]5CC[C@]43C)[C@@H]2C1` [Medicagenic acid] the “229E Inhibition rate” value was 4.3%.
In the case of `C/C=C/c1ccc(OC)c(OC)c1` [Methyl isoeugenol], the “229E Inhibition rate” value is reported as 21.2%.
For `CC(=O)O[C@@]12CO[C@@H]1C[C@@H](O)[C@@]1(C)C(=O)[C@H](O)C3=C(C)[C@@H](OC(=O)[C@H](O)[C@@H](NC(=O)c4ccccc4)c4ccccc4)C[C@@](O)([C@@H](OC(=O)c4ccccc4)[C@H]21)C3(C)C` [7-Epi 10-desacetyl paclitaxel], the “229E Inhibition rate” value was 21.4%.
With `COc1c(O)c2c(=O)cc(OC)c3c4c(OC)cc(=O)c5c(O)c(OC)c6c(c(c1CC(C)=C6C(C)=O)c23)c54` [Hypocrellin B] the “229E Inhibition rate” value was 1.2%.
With `C/C(=C\CC[C@@H](C)[C@H]1CC[C@@]2(C)C3=CC[C@H]4C(C)(C)[C@@H](O)CC[C@]4(C)C3=CC[C@]12C)CO` [Ganoderol B] the “229E Inhibition rate” value was 7.7%.
`NCC(=O)N[C@@H](Cc1ccc(O)cc1)C(=O)O` [Glycyl-L-tyrosine] (H-Gly-Tyr-OH) was tested, and the “229E Inhibition rate” value was 6.3%.
In the case of `Cc1nc2n(c(=O)c1CCN1CCC(c3noc4cc(F)ccc34)CC1)CCCC2O` (stereo not drawn) [Paliperidone], the “229E Inhibition rate” value is reported as 0%.
In the case of `CCCCC/C=C\C/C=C\CCCCCCCC(=O)O[C@H]1CC[C@@]2(C)C(=CC[C@H]3[C@@H]4CC[C@H]([C@H](C)CCCC(C)C)[C@@]4(C)CC[C@@H]32)C1` [Cholesteryl linoleate], the “229E Inhibition rate” value is reported as 19.1%.
`C=CCCCCCCCCC(=O)O` [10-Undecenoic acid] was tested, and the “229E Inhibition rate” value was 16.2%.
With `COc1ccc(CC(=O)O)cc1` [2-(4-Methoxyphenyl)acetic acid] the “229E Inhibition rate” value was 0%.
For `C=C1C(=O)[C@@]23[C@H](O)C[C@@H]4C(C)(C)CC[C@H](O)[C@@]4(CO)[C@@H]2CC[C@@H]1[C@H]3O` [Kamebakaurin], the “229E Inhibition rate” value was 0%.
`COc1c(O)cc2oc3cc(O)c(CC=C(C)C)c(O)c3c(=O)c2c1CC=C(C)C` [alpha-Mangostin] was tested, and the “229E Inhibition rate” value was 42.5%.
With `Cc1cccc(CC(=O)O)c1` [m-Tolylacetic acid] the “229E Inhibition rate” value was 18.9%.
With `C[C@H](CCC(=O)NCCS(=O)(=O)O)[C@H]1CC[C@H]2[C@@H]3[C@@H](O)C[C@@H]4C[C@H](O)CC[C@]4(C)[C@H]3CC[C@]12C` [Tauroursodeoxycholate] the “229E Inhibition rate” value was 17.1%.
With `COc1ccc([C@@H]2CC(=O)c3c(O)cc(O[C@@H]4O[C@H](CO[C@@H]5O[C@@H](C)[C@H](O)[C@@H](O)[C@H]5O)[C@@H](O)[C@H](O)[C@H]4O)cc3O2)cc1OC` [Methyl-Hesperidin] the “229E Inhibition rate” value was 34.1%.
With `CCOc1ccc2ccc(=O)oc2c1` [7-Ethoxycoumarin] the “229E Inhibition rate” value was 16.8%.
With `O=C1c2c(O)cc(O)cc2O[C@H](c2cc(O)c(O)c(O)c2)[C@H]1O` [Dihydromyricetin] the “229E Inhibition rate” value was 0%.
In the case of `Oc1cc2cc[nH]c2cc1O` [5,6-Dihydroxyindole], the “229E Inhibition rate” value is reported as 1.6%.
For `CC1=CCC(C(C)C)=CC1` [γ-Terpinene], the “229E Inhibition rate” value was 7.7%.
`O=C(O[C@@H]1Cc2c(O)cc(O)cc2O[C@H]1c1cc(O)c(O)c(O)c1)c1cc(O)c(O)c(O)c1` [(-)-Gallocatechin gallate] was tested, and the “229E Inhibition rate” value was 11%.
For `C=C(CO)C(=O)O[C@H]1CC(=C)[C@@H]2C[C@H](O)C(=C)[C@@H]2[C@H]2OC(=O)C(=C)[C@@H]21` [Cynaropicrin], the “229E Inhibition rate” value was 8.5%.
For `OC[C@H]1O[C@@H](Oc2ccc3c(c2)OC[C@H]2c4cc5c(cc4O[C@@H]32)OCO5)[C@H](O)[C@@H](O)[C@@H]1O` [Trifolirhizin], the “229E Inhibition rate” value was 10.7%.
For `COc1ccc(C(=O)O)cc1OC` [Veratric acid], the “229E Inhibition rate” value was 18%.
For `C[C@H]1[C@H](OC(=O)CCC(=O)O)O[C@@H]2O[C@@]3(C)CC[C@H]4[C@H](C)CC[C@@H]1[C@@]24OO3` [Artesunate], the “229E Inhibition rate” value was 4.1%.
In the case of `CCCCCCCCCCCCOC(=O)CS(=O)(=O)O` [Sodium lauryl sulfoacetate], the “229E Inhibition rate” value is reported as 17.1%.
`Cc1c(O)c(C)c2c(c1O)C(=O)[C@H](Cc1ccc3c(c1)OCO3)CO2` [Methylophiopogonanone A] was tested, and the “229E Inhibition rate” value was 21.6%.
In the case of `COC(=O)/C=C/c1ccccc1` [Methyl cinnamate], the “229E Inhibition rate” value is reported as 15%.
For `O=C(O)c1ccc(C(=O)O)cc1` [Terephthalic acid], the “229E Inhibition rate” value was 10.1%.
For `COc1ccc(O)c(C(=O)O)c1` [5-Methoxysalicylic acid], the “229E Inhibition rate” value was 11.2%.
In the case of `COc1ccc(CCO[C@@H]2O[C@H](CO[C@@H]3O[C@H](CO)[C@H](O)[C@H](O)[C@H]3O)[C@@H](OC(=O)/C=C/c3ccc(O)c(OC)c3)[C@H](O[C@@H]3O[C@@H](C)[C@H](O)[C@@H](O)[C@H]3O)[C@H]2O)cc1O` [Jionoside B1], the “229E Inhibition rate” value is reported as 0%.
